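Primary screen of methionyl-tRNA synthetase; the read-out is not stated. Target: Methionyl-tRNA synthetase (putative), Leishmania donovani (UniProt E9BF75). The test concentration is not given. Values are per cent inhibition. Size under these conditions: about 68,000 compounds, about 24 of them at 50% or above in at least one test.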

By UniProt entry, the sequences of proteins in these tests, tags left out.
UniProt E9BF75, entry or part of it: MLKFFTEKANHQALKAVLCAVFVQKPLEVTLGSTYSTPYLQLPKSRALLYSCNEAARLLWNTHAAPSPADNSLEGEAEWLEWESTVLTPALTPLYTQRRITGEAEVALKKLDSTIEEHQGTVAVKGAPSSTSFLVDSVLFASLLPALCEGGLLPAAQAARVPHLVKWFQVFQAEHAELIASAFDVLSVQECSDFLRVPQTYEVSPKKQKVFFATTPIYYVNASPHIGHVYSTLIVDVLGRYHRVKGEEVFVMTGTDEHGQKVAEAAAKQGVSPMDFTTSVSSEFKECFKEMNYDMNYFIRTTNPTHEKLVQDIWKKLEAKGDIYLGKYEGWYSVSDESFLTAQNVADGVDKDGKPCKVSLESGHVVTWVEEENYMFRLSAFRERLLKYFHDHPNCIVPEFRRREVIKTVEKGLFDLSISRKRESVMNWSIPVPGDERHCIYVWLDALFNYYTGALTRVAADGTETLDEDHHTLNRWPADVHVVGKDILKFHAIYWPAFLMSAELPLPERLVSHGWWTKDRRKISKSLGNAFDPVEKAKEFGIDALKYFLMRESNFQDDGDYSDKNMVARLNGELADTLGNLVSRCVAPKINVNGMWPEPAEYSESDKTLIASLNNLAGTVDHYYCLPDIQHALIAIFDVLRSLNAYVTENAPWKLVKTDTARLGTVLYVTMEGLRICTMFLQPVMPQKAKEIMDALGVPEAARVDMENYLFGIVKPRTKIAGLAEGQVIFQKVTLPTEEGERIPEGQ

All values are in %.
The controls that fix the scale are not given in the record; negative values are as filed.
This is an unselected part of the compounds tested.

With CSc1ncnc(NCc2ccccc2F)c1C#N the screen gave 7.914%. With COCCNC(=O)Cn1c(-c2ccco2)cc2cccnc21 the screen gave 22.96%. CCc1nc(CN2CCCN(C(=O)CC(F)(F)F)CC2)cs1 gave 16.87%. Result for COc1ncccc1CN1C[C@@H]2COC[C@]2(COc2cccnc2)C1 was 18.73%.

Result for CC(NC(=O)N1CCc2ccccc21)c1nncn1C (centres unmarked) was 14.75%. With CC(=O)c1cc(CN2C[C@@H](CN3CCCC3)[C@@H](CO)C2)n(C)c1 the screen gave 20.07%. O=C(C1CC=CC1)N1CCC2(CC1)OCCO2 read 11.27%. Result for O=c1ccc2c(n1CC1CC1)CCC(NS(=O)(=O)C1CC1)C2 (centres unmarked) was 7.143%.

With CCC1COCCN1C(=O)NCc1nccn1Cc1ccccc1 (centres unmarked) the screen gave 7.542%. With COCCN(Cc1ccc(C)o1)C(=O)Nc1nnc(C(F)F)s1 the screen gave 11.38%. Fc1cnc(N2CCCC3(CCN(Cc4ccco4)C3)C2)nc1 (centres unmarked) read 10%. Result for COc1cccc2c1OCC(NC(=O)NCCC(N)=O)C2 (centres unmarked) was 8.609%.

With CC(NC(=O)C(C)(C)C)c1cc(O)nc(-c2cccnc2)n1 (centres unmarked) the screen gave 12.21%. For OC1(CNCc2ccc(F)c(C(F)(F)F)c2)CCSCC1 the result was 10.87%. With CN(Cc1cccs1)C(=O)CNC1CCc2ncnn2C1 (centres unmarked) the screen gave 3.833%. Result for CN(C)CCO[C@@H]1CC[C@H]2[C@H]1OCCN2C(=O)c1ccnnc1 was -0.5076%.

For CC(C)NC(=O)[C@@H]1CN(C)C[C@]12COc1ccc(F)cc1C2=O the result was 10.31%. Cc1ccccc1N1CCN(C(=O)c2cscn2)C(C)C1 (centres unmarked) read 5.495%. Result for O=c1[nH]c(N2CCCCC2)nc2c1CCN(Cc1cccnc1)C2 was 18.75%. COC(=O)CN(C(=O)c1ccoc1)c1cccc(F)c1 gave 9.278%.

Result for O=C(NC1CCCN(CCc2ccccc2)C1)c1cnccn1 (centres unmarked) was 14.65%. Result for Cn1nccc1C(=O)N1CCOC(Cc2cccnc2)C1 (centres unmarked) was 8.014%. CC1CCCCN1C1CN(c2nc(C3CCCC3)nc3c2cnn3C)C1 (centres unmarked) gave 13.44%. With Cc1cc(CCC(N)=O)cc(C2CCCN2Cc2ccnn2C)n1 (centres unmarked) the screen gave 12.94%.

With CCOc1ccc(-c2ccnc(CC)n2)cc1C(=O)O the screen gave 17.03%. With CCOc1cccnc1C(=O)N1CCC(c2ccccc2OC)C1 (centres unmarked) the screen gave 9.777%. Cc1cc(C)nc(CCNC(=O)C(c2ccc(F)cc2)N(C)C)n1 (centres unmarked) gave -6.5%. For CNc1nc(C)c(C(=O)N2CCC(C(O)Cc3ccccc3)CC2)s1 (centres unmarked) the result was 12.27%.

Cc1cccc(-c2ccc(C(=O)NCC3CCOC3)c(=O)[nH]2)c1 (centres unmarked) read 13.73%. For O=C(c1cc(C2CC2)on1)N1CCCC(n2cncn2)C1 (centres unmarked) the result was 11.66%. Result for CC(=O)Nc1ccc(Cl)c(C(=O)N(C)C(C)c2nccs2)c1 (centres unmarked) was 4.359%. Cc1cnc(N2C(=O)CSC2c2ccc(F)cc2)s1 (centres unmarked) read 12.11%.

Result for Cc1ccc(F)c(NC(=O)NCCCn2nc3ccccn3c2=O)c1 was 18.71%. Result for Cn1ccnc1COc1ccc(CSc2nnnn2C)cc1 was 21.07%. With COCc1nc(C2CCN(Cc3nccn3C)CC2)no1 the screen gave 16.08%. With CC(C)C(Sc1nnc(C2CC2)n1C1CC1)C(=O)NCc1cccnc1 (centres unmarked) the screen gave 8.502%.

With Cn1cc2c(n1)C(CNCC1CCOCC1)OCC2 (centres unmarked) the screen gave -2.256%. COc1ccc(S(=O)(=O)N2CCn3nc(C)nc3C2)cc1C read 16.23%. With CCOc1ccc(C(=O)N2CCC(Oc3ccccc3)(C(=O)O)CC2)o1 the screen gave 8.844%. CC(=O)N1CCC1c1cc(N2CCSCC2)nc(C)n1 (centres unmarked) read 15.84%.

With Cc1ccc2c(c1)C(NC(=O)N(C)C)CC21CCN(C(C)C)CC1 (centres unmarked) the screen gave 7.945%. For Cc1[nH]c2c(F)cccc2c1CC(=O)NCCCc1csc(N)n1 the result was 18.73%. CN(C)C(C(=O)N1CC(c2ccccn2)C1)c1cccc(F)c1 (centres unmarked) gave 10.13%. With CCN(CC)S(=O)(=O)N(C)Cc1ccncc1 the screen gave 16.3%.

With CS(=O)(=O)CCCNC(=O)Nc1sc2ccccc2c1Cl the screen gave 11.08%. Cc1cnc2c(S(=O)(=O)NCC3CCOC3)cccc2c1 (centres unmarked) gave 7.429%. For CC(=O)Nc1ccc(-n2ccc3nc(N4CCCC4)ncc3c2=O)cc1 the result was 5.394%. Result for O=C(CCN1CCCC1=O)NCc1cccnc1Oc1ccccc1 was 14.5%.

Result for CN(C)CCN1CCO[C@@H]2CCN(C(=O)c3cccn3C)CC[C@H]21 was 4.918%. N#Cc1ccccc1CN1C[C@H]2CC[C@@H]1CN(C(=O)c1cccnc1)C2 gave 15.38%. With CC(C)(C)n1ncc2c1CCCC2NCc1ccc2c(c1)CCO2 (centres unmarked) the screen gave 20.99%. c1ccc(CN2CCc3nnc(COc4ccccn4)n3CC2)nc1 read 1.961%.

For O=C1[C@@H]2CCN(Cc3ccoc3)C[C@@H]2OCCN1Cc1cccnc1 the result was 15.68%. For CC(=O)c1cc(CN2C[C@@H](N(C)C)[C@H](C(C)C)C2)cs1 the result was 4.011%. Cc1oc(-c2cccs2)nc1C(=O)N1CCCC1Cn1cccn1 (centres unmarked) gave 13.13%. For c1n[nH]cc1CCCN1CCC(OC2CCCCC2)CC1 the result was 3.621%.

Result for c1cnc(NC2COC3(CCN(Cc4cccs4)CC3)C2)nc1 (centres unmarked) was 19.76%. Cc1cccc(NC(=O)N2CC(C(=O)NC(C)C)C3(CCOCC3)C2)c1 (centres unmarked) gave 6%. Cn1cnnc1C1CCCN(C(=O)COCc2ccccc2)C1 (centres unmarked) gave 10.74%. For COC(=O)CC1CN(Cc2c(Cl)ccc3cccnc23)CCO1 (centres unmarked) the result was 19.55%.

Some entries from above, unchanged:

Compound,inhibition
CC(NC(=O)N1CCc2ccccc21)c1nncn1C (centres unmarked),14.75%
CCOc1ccc(C(=O)N2CCC(Oc3ccccc3)(C(=O)O)CC2)o1,8.844%
CN(Cc1cccs1)C(=O)CNC1CCc2ncnn2C1 (centres unmarked),3.833%
CN(C)C(C(=O)N1CC(c2ccccn2)C1)c1cccc(F)c1 (centres unmarked),10.13%

Source: ChEMBL document CHEMBL3988442, “University of Dundee, Small-Polar-MMV Screening Library” (2021).